Reference: the supplement of paper PMC6411743
± gives the standard deviation of the averaged measurements. Only a part is listed here, and it is no random draw.

How the values were obtained:
Assay in all cases: NP40-soluble protein abundance relative to vehicle (solubility fold change) (ratio); higher = more soluble protein in presence of ATP
[1] = biological target: T1, A0A0A6YYL4|P57737-3|P57737-4 (UniProt P57737)
T1 sequence (whole entry): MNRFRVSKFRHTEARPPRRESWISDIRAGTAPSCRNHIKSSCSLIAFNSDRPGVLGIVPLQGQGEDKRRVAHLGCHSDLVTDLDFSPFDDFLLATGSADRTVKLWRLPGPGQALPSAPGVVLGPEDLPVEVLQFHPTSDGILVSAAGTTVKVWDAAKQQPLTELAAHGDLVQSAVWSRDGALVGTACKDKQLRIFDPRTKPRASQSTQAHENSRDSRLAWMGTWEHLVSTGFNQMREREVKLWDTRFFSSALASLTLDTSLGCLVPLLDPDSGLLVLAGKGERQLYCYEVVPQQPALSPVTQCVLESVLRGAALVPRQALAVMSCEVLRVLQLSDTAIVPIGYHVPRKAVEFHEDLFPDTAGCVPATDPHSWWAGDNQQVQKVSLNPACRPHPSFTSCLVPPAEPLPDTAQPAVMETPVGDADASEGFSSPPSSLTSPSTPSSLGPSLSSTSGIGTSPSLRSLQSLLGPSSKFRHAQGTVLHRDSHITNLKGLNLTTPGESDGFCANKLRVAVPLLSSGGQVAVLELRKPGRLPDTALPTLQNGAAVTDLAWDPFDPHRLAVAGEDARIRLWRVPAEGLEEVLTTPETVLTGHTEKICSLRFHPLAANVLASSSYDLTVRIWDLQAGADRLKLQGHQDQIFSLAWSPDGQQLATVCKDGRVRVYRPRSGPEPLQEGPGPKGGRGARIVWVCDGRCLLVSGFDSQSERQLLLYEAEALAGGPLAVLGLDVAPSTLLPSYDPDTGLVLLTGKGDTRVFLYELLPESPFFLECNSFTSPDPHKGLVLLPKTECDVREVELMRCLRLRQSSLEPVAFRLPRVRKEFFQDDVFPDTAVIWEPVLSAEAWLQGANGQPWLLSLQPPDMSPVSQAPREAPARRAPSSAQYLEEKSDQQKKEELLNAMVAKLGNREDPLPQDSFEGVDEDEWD
Summary of the method: (§1)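 In three independent experiments, Jurkat crude lysate made by Dounce homogenisation was treated for 10 min at room temperature and then 3 min at 37 °C with eight concentrations ranging from 0.1 to 10 mM. It was then solubilised with 0.8% NP40 plus benzonase for 60 min at 4 °C and ultracentrifuged. The supernatant was TMT-labelled for LC-MS/MS, and each value is the fold change against the detergent-processed vehicle for the same replicate, using vsn-normalised intensities.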

[2] = biological target: T2, A0A0C3SFZ9|O14526 and related entries (UniProt O14526)
T2 sequence (whole entry): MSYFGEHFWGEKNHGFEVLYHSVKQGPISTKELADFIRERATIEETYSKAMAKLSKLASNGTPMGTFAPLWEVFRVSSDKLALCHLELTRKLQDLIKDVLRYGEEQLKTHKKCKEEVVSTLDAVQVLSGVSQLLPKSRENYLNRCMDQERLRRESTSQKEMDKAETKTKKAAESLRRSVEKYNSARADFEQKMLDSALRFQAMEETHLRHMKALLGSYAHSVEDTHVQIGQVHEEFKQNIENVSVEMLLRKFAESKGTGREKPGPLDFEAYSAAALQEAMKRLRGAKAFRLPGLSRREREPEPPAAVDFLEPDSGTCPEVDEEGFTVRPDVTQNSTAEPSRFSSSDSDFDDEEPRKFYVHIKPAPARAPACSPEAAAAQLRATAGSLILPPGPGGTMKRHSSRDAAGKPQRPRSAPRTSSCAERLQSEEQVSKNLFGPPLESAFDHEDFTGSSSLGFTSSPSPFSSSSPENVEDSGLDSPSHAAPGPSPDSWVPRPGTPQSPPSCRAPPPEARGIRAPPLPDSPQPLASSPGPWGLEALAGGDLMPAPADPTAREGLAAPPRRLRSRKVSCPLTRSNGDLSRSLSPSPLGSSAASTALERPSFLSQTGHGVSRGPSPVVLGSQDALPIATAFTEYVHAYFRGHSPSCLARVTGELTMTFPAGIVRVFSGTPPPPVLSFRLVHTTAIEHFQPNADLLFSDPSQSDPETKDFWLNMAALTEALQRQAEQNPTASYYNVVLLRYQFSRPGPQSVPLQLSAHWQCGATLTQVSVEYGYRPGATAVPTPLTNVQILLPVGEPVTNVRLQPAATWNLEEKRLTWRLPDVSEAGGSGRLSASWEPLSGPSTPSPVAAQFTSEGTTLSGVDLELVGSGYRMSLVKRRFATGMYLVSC
Summary of the method: as §1

[3] = biological target: T3, A0A0C4DFV0|Q9H469 (UniProt Q9H469)
T3 sequence (whole entry): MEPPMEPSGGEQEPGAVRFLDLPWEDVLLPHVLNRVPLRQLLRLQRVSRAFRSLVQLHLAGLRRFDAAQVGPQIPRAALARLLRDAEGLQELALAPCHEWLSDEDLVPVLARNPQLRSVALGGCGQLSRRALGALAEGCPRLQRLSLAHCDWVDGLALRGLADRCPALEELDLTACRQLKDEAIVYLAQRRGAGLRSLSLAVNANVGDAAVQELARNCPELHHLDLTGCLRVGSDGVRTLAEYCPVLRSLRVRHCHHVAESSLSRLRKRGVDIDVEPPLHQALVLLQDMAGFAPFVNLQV
Summary of the method: as §1

[4] = biological target: T4, A0A0C4DG89|Q7L014 (UniProt Q7L014)
T4 sequence (whole entry): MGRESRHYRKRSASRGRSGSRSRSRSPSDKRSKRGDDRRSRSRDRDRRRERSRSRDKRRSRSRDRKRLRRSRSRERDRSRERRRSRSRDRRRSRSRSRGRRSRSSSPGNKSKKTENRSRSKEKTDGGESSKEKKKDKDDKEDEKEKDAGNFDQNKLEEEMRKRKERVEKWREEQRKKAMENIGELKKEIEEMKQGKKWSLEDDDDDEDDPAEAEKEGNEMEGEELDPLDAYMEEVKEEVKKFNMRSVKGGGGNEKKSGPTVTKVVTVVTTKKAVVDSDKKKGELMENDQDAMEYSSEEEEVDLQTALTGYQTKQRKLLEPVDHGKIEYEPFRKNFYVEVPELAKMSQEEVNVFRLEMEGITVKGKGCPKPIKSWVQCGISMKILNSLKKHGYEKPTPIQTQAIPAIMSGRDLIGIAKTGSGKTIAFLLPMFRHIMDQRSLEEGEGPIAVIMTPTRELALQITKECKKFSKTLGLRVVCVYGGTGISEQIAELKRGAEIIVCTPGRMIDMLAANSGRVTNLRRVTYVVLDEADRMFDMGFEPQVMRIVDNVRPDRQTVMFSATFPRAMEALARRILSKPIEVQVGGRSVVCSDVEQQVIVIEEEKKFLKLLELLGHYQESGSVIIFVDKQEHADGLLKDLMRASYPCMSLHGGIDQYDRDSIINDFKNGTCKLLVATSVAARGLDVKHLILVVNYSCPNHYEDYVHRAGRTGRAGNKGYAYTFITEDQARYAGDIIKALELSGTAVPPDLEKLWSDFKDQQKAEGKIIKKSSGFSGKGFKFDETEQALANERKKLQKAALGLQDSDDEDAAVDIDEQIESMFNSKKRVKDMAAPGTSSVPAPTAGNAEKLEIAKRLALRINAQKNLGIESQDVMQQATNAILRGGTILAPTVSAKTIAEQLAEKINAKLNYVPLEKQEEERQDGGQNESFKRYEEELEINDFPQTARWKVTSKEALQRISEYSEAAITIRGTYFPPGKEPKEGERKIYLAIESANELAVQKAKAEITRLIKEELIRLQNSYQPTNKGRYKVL
Summary of the method: as §1

[5] = biological target: T5, A0A0C4DGS5|B7ZC06 and related entries (UniProt Q08379)
T5 sequence (whole entry): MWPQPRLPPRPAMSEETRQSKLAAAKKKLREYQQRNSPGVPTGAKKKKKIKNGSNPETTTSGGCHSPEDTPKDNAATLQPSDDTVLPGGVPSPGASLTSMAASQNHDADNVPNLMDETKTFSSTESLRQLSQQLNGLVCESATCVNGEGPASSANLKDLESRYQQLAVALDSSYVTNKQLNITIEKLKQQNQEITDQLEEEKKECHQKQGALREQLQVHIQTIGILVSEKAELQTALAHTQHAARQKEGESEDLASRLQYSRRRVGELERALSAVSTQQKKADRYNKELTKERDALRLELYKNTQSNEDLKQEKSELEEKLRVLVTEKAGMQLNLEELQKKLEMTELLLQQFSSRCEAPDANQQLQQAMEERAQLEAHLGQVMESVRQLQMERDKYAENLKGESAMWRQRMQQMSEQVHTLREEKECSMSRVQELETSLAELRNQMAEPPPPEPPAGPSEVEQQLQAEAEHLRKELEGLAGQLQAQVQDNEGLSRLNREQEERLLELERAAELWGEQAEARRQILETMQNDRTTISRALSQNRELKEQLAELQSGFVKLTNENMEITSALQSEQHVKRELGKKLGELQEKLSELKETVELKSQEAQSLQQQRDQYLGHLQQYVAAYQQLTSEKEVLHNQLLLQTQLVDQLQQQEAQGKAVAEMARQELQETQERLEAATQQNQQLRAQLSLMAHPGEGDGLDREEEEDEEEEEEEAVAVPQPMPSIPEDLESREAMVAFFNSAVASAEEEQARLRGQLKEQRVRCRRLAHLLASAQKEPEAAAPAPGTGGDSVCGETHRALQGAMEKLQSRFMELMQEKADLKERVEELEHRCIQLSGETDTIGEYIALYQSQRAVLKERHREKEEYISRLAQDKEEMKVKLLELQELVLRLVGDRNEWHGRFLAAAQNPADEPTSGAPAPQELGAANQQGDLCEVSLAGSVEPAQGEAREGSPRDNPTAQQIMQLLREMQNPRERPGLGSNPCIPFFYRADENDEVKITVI
Summary of the method: as §1

## Nc1ncnc2c1ncn2[C@@H]1O[C@H](COP(=O)(O)OP(=O)(O)OP(=O)(O)O)[C@@H](O)[C@H]1O [adenosine triphosphate]
[1]; concentration: 6mM
  NP40-soluble protein abundance: 0.955 ± 0.034
[1]; concentration: 8mM
  NP40-soluble protein abundance: 0.96 ± 0.015
[1]; concentration: 10mM
  NP40-soluble protein abundance: 0.9419 ± 0.0061
[2]; concentration: 1mM
  NP40-soluble protein abundance: 0.947 ± 0.022
[2]; concentration: 2mM
  NP40-soluble protein abundance: 0.966 ± 0.01
[2]; concentration: 4mM
  NP40-soluble protein abundance: 0.98 ± 0.027
[2]; concentration: 6mM
  NP40-soluble protein abundance: 0.974 ± 0.054
[2]; concentration: 8mM
  NP40-soluble protein abundance: 0.94 ± 0.063
[2]; concentration: 10mM
  NP40-soluble protein abundance: 0.972 ± 0.0061
[3]; concentration: 1mM
  NP40-soluble protein abundance: 0.994 ± 0.091
[3]; concentration: 2mM
  NP40-soluble protein abundance: 1.01 ± 0.076
[3]; concentration: 4mM
  NP40-soluble protein abundance: 1.04 ± 0.027
[3]; concentration: 6mM
  NP40-soluble protein abundance: 1.02 ± 0.042
[3]; concentration: 8mM
  NP40-soluble protein abundance: 0.999 ± 0.074
[3]; concentration: 10mM
  NP40-soluble protein abundance: 1.01 ± 0.12
[4]; concentration: 1mM
  NP40-soluble protein abundance: 1.11 ± 0.034
[4]; concentration: 2mM
  NP40-soluble protein abundance: 1.1 ± 0.018
[4]; concentration: 4mM
  NP40-soluble protein abundance: 1.1 ± 0.021
[4]; concentration: 6mM
  NP40-soluble protein abundance: 1.16 ± 0.022
[4]; concentration: 8mM
  NP40-soluble protein abundance: 1.13 ± 0.015
[4]; concentration: 10mM
  NP40-soluble protein abundance: 1.14 ± 0.033
[5]; concentration: 1mM
  NP40-soluble protein abundance: 0.943 ± 0.056
[5]; concentration: 2mM
  NP40-soluble protein abundance: 0.957 ± 0.041
[5]; concentration: 4mM
  NP40-soluble protein abundance: 0.961 ± 0.05
[5]; concentration: 6mM
  NP40-soluble protein abundance: 1.01 ± 0.07
[5]; concentration: 8mM
  NP40-soluble protein abundance: 0.941 ± 0.045
[5]; concentration: 10mM
  NP40-soluble protein abundance: 0.974 ± 0.029
